Earlier results in US20180036314A1, “METHODS AND COMPOSITIONS FOR TREATING PERIPHERAL VASCULAR DISEASE” (Exodos Life Sciences Limited Partnership, priority 2009, published 2018).
For at least one compound, name, drawing or mass did not settle the structure.

Tested on: patients presenting with primary (18%) or secondary (82%) Raynaud's phenomenon
Conditions: oral; cited from earlier work

CCCc1nc(C)c2c(=O)[nH]c(-c3cc(S(=O)(=O)N4CCN(CC)CC4)ccc3OCC)nn12 [vardenafil, 2-[2-ethoxy-5-(4-ethyl-piperazin-1-yl-1-sulphonyl)-phenyl]-5-methyl-7-propyl-3H-imidazo[5,1-f][1,2,4]triazin-4-one]
Patients with increased digital blood flow: 70% | Reduction of duration of Raynaud's attacks: 60% | Reduction of number of Raynaud's attacks: 50% | Reduction of severity of Raynaud's attacks: 53%
